Reference: the supplement of paper PMC7125110
± gives the standard error. Many entries were measured with a wide error.

B1: glmS ribozyme (parent)
chain: AUAAAAGCGCCAGAACUACAGAAAUGUAGUUGACGAGGAGGAGGUUUAUCGAAUUUUCGGCGGAUGCCUCCAAA

Variants of: B1
Assay: KM; higher = weaker cofactor use; RNA array
Conditions: with glucosamine-6-phosphate
Summary of the method: (§1)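 Weighted Michaelis–Menten fits across concentrations supplied kcat and KM, based on kobs from one- or two-exponential decay fits to normalised per-tile medians. The data came from barcoded ribozyme variants transcribed in situ by E. coli RNA polymerase on sequenced MiSeq chips and tracked at 37 °C by a hybridised Cy3 probe. Glucosamine-6-phosphate (40 μM to 10 mM) in HEPES/KCl/Mg(OAc)2 buffer was flowed in.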

Row | Variant | KM [µM]
1 | U56G C68A | 103 ± 80
2 | U56G C68G | 2280 ± 1300
3 | U56G C70U | 142 ± 93
4 | U56G G59A | 1920 ± 460
5 | U56G U65C | 6800 ± 1000
6 | U56G U69A | 246 ± 200
7 | U57A | 3120 ± 170
8 | U57A A64U | 865 ± 550
9 | U57A C67A | 3150 ± 2100
10 | U57A C71G | 12400 ± 6200
11 | U57A G66A | 4040 ± 1400
12 | U57A G66U | 635 ± 350
13 | U57A U65G | 416 ± 410
14 | U57C | 3180 ± 76
15 | U57C C58G | 1320 ± 950
16 | U57C C67U | 789 ± 530
17 | U57C C71G | 144 ± 140
18 | U57C C71U | 370 ± 290
19 | U57C U65G | 631 ± 440
20 | C58A | 4110 ± 820
21 | C58A G66U | 2010 ± 1100
22 | C58A U65C | 5030 ± 1300

Row | Variant | KM [µM]
23 | C58A U69C | 640 ± 220
24 | C58G A64G | 1800 ± 1100
25 | C58G G63A | 582 ± 470
26 | C58U | 4350 ± 360
27 | C58U A64G | 2680 ± 1300
28 | C58U C67G | 86.5 ± 61
29 | C58U C71A | 19700 ± 5800
30 | G59A C61G | 34.3 ± 22
31 | G59A C68U | 446 ± 360
32 | G59A C71U | 1210 ± 130
33 | G59U C71G | 817 ± 71
34 | G60A C70U | 1620 ± 820
35 | G60C G66A | 756 ± 640
36 | C61A C68U | 202 ± 130
37 | C61U C67A | 147 ± 110
38 | C61U C68U | 97 ± 74
39 | A64C C71G | 75.1 ± 65
40 | A64G C67U | 1860 ± 470
41 | A64G U65G | 4490 ± 1700
42 | A64G U69A | 1230 ± 510
43 | A64U C67U | 638 ± 430
44 | U65A C68U | 499 ± 310

Row | Variant | KM [µM]
45 | U65A C70G | 66.3 ± 25
46 | U65A G66C | 1400 ± 320
47 | U65C C71U | 1460 ± 510
48 | U65G C67U C68U | 2360 ± 1900
49 | U65G U69G | 214 ± 120
50 | G66A C67U | 697 ± 380
51 | G66C C70A | 531 ± 510
52 | G66U C68U | 1260 ± 190
53 | G66U C70U | 1830 ± 590
54 | G66U U69A | 493 ± 290
55 | C67A | 1730 ± 380
56 | C67A C70U | 878 ± 530
57 | C67A C71G | 62.7 ± 45
58 | C67G | 2390 ± 300
59 | C67G C68U | 234 ± 34
60 | C67U C70U | 1370 ± 110
61 | C67U C71A | 1030 ± 530
62 | C67U C71G | 65 ± 47
63 | U69C C71G | 28.1 ± 21
64 | C70U | 517 ± 260
65 | C70U C71A | 607 ± 110

A different layout for part of the listing above.
Row	Variant	KM [µM]
49	U65G U69G	214 ± 120
54	G66U U69A	493 ± 290

Variants of: B1
Assay: self-cleavage kobs at 640 uM GlcN6P; higher = faster cleavage; RNA array
Conditions: with glucosamine-6-phosphate
Summary of the method: as §1

Row | Variant | self-cleavage kobs at 640 uM GlcN6P [s⁻¹]
66 | U56G C68A | 2.94e-05 ± 1.9e-05
67 | U56G C68G | 1.96e-05 ± 1.3e-05
68 | U57A U65G | 2.07e-05 ± 2e-05
69 | G59A C71U | 2.36e-05 ± 1.4e-05
70 | A64U C67U | 2.03e-05 ± 1.3e-05
71 | A6G C68G C70U | 3.11e-05 ± 2.4e-05

Variants of: B1
Assay: self-cleavage kobs at 10000 uM GlcN6P; higher = faster cleavage; RNA array
Conditions: with glucosamine-6-phosphate
Summary of the method: as §1

Row | Variant | self-cleavage kobs at 10000 uM GlcN6P [s⁻¹]
72 | U56G C68A | 2.42e-05 ± 1.8e-05
73 | U57A C71G | 2.37e-05 ± 1.5e-05
74 | U57A G66U | 1.96e-05 ± 1.3e-05
75 | G59A C68U | 1.54e-05 ± 8.3e-06
76 | G7A A53U C68G | 3.37e-05 ± 2.3e-05
77 | G7U C50G G63A | 2.31e-05 ± 1.7e-05

Variants of: B1
Assay: self-cleavage kobs at 40 uM GlcN6P; higher = faster cleavage; RNA array
Conditions: with glucosamine-6-phosphate
Summary of the method: as §1

Row | Variant | self-cleavage kobs at 40 uM GlcN6P [s⁻¹]
78 | U57A | < 1e-05
79 | U65A C70G | 2.29e-05 ± 1.2e-05
80 | C67A C71G | 1.76e-05 ± 1.2e-05
81 | C67U C70U | < 1e-05
82 | A6G A15G | 2.4e-05 ± 1.5e-05
83 | A6G C50G C68G | 2.19e-05 ± 1.6e-05
84 | A6G C68G C70U | 3.2e-05 ± 2.6e-05
85 | A6U C50A G60C C68G | 5.23e-05 ± 2.8e-05
86 | G7A A53U C68G | 3.84e-05 ± 2.3e-05
87 | G7A C50G G63C | 4.52e-05 ± 3e-05
88 | G7A G9A A53G G60A U65A C67A | 8.38e-05 ± 4.3e-05
89 | G7A U49A C50U U54G C70G | 3.97e-05 ± 2.9e-05
90 | G7U A48U C50A C67G | 3.31e-05 ± 2.2e-05
91 | G7U C50G G63A | 3.8e-05 ± 2.2e-05

Three entries picked at random from the list so far, as already listed:
Row | Variant | self-cleavage kobs at 40 uM GlcN6P [s⁻¹]
82 | A6G A15G | 2.4e-05 ± 1.5e-05
90 | G7U A48U C50A C67G | 3.31e-05 ± 2.2e-05
91 | G7U C50G G63A | 3.8e-05 ± 2.2e-05

Variants of: B1
Assay: self-cleavage kobs at 2500 uM GlcN6P; higher = faster cleavage; RNA array
Conditions: with glucosamine-6-phosphate
Summary of the method: as §1

Row | Variant | self-cleavage kobs at 2500 uM GlcN6P [s⁻¹]
92 | C58A G66U | 3.5e-05 ± 1.8e-05
93 | C58A U65C | 2.25e-05 ± 1.9e-05
94 | G59A C68U | 1.35e-05 ± 1.2e-05

Variants of: B1
Assay: self-cleavage kobs at 160 uM GlcN6P; higher = faster cleavage; RNA array
Conditions: with glucosamine-6-phosphate
Summary of the method: as §1

Row | Variant | self-cleavage kobs at 160 uM GlcN6P [s⁻¹]
95 | U65G C67U C68U | 2.77e-05 ± 2.7e-05
